This assay has as its target ZC3H4-GFP (human) (UniProt Q9UPT8). Description: co-IP; GFP trap: ZC3H4-GFP captured from whole cell lysate on GFP nanobody-coupled magnetic agarose, 1 hr at 4°C; lysis buffer 150 mM NaCl, 2.5 mM MgCl2, 20 mM Tris HCl pH 7.5, 1% Triton X-100, Benzonase; 5 washes; western blot for WDR82 and GFP; untransfected cells as negative control. A general note: In western blotting, separated proteins are transferred to a membrane and probed.

The chains behind the UniProt entries cited, without tags or fusion partners.
UniProt Q9UPT8: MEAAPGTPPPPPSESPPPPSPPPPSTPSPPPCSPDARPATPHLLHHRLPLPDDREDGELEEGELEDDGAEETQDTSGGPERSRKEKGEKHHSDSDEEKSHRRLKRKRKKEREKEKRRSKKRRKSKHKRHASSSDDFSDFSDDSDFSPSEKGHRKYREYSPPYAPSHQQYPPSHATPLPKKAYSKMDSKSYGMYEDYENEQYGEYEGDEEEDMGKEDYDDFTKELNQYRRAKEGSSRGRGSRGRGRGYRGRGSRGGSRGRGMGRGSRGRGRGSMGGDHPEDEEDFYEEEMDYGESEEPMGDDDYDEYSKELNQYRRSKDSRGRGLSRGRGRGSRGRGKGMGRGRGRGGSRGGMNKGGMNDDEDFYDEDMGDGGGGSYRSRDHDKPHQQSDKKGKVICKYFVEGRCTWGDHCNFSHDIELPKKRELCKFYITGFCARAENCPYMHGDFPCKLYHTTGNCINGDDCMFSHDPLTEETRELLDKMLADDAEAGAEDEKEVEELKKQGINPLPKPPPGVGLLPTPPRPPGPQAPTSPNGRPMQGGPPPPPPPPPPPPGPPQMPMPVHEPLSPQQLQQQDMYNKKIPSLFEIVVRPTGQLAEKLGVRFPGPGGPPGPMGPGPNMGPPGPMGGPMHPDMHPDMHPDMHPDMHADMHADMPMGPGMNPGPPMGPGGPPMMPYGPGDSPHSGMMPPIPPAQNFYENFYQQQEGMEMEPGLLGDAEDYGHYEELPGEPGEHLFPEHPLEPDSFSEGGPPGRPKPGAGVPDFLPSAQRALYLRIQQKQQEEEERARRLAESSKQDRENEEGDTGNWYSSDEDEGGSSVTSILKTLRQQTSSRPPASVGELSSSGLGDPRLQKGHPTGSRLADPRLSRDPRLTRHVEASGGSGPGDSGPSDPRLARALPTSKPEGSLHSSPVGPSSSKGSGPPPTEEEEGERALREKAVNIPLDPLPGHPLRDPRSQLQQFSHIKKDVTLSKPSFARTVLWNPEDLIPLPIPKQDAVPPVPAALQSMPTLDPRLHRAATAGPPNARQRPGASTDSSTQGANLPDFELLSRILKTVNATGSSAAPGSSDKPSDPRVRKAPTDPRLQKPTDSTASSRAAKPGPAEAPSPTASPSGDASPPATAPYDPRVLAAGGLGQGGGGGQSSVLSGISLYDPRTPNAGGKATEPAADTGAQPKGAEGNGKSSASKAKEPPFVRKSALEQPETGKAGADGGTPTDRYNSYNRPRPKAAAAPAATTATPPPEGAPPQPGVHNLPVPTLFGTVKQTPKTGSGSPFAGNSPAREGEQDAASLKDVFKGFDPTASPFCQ
UniProt Q6UXN9: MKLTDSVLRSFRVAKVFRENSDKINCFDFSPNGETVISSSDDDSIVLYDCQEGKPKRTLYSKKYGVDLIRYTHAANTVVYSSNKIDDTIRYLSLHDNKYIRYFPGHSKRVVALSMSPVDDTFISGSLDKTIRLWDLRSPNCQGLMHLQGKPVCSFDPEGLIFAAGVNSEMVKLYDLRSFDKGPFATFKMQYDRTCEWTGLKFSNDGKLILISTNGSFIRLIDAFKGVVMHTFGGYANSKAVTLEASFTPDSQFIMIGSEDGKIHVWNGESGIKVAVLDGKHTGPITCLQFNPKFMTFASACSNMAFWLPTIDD

Results are given in words; binding and its absence hold for the method and conditions named. In cells and extracts the contact can be indirect. Some results given as binding are weak or reduced against the parent protein; the word gives no strength.

With WDR82 (from UniProt Q6UXN9 1-313), the binding result is recorded as “binds”.

The record behind these values is publication PMC8137146.
